Results as given in patent US9381349B2, “Apparatus for treating cerebral neurovascular disorders including headaches by neural stimulation” (priority 1997, dated 2016).
Where two headings read alike, the source gives them in different places.

Key:
headache = settings: 10% (w/v) lidocaine solution; three patients
[1] = cited from earlier work
migraine = settings: lidocaine, Intranasal Spray, of patients who exhibited relief, usually within one hour post-treatment, cited from earlier work

CCN(CC)CC(=O)Nc1c(C)cccc1C [Lidocaine, lidocaine]
Rebound of headache symptoms (headache): rebounded in two of the patients in less than one hour
Proportion bound to protein in vivo [1]: about 65%
Rebound Rate (migraine): 42%
Rebound Rate (migraine; listed as lidocaine): at least 42%
